Results: the supplement of paper PMC9015667
Counter-ions that a name gives are not always drawn. This is one part of the list. Repeats are few or missing, and single values can be far off.

What was measured:
Assay in all cases: reduction in cell viability relative to untreated/vehicle; higher = more growth inhibition
Settings in all cases: 200 nM; 72 h
M229P = test system: M229P (parental melanoma line)
M229R = test system: M229R (matched melanoma line resistant to BRAF inhibitors)
M238P = test system: M238P (parental melanoma line)
M238R = test system: M238R (matched melanoma line resistant to BRAF inhibitors)
M249P = test system: M249P (parental melanoma line)
M249R = test system: M249R (matched melanoma line resistant to BRAF inhibitors)
UACC62P = test system: UACC62P (parental melanoma line)
UACC62R = test system: UACC62R (matched melanoma line resistant to BRAF inhibitors)

Measured: reduction in cell viability

CCCCN(CCCC)CC(O)c1cc(Cl)cc2c1-c1ccc(Cl)cc1/C2=C/c1ccc(Cl)cc1 (stereo unspecified) [Lumefantrine]
6.47%: M249R
< 0%: all other assays above

CN1CC2c3ccccc3Oc3ccc(Cl)cc3C2C1 (stereo unspecified) [Asenapine]
8.37%: M249R
< 0%: all other assays above

CCOC(=O)[C@@H](C)Oc1cccc2c(=O)n(CC(=O)Nc3ccc4c(c3)OCCO4)ccc12
< 0%: all assays above

CN(C)CCOc1ccc(/C(=C(/CCCl)c2ccccc2)c2ccccc2)cc1 [Toremifene]
< 0%: all assays above

O=C(O)C1=CO[C@@H](O[C@@H]2O[C@H](CO)[C@@H](O)[C@H](O)[C@H]2O)[C@@H]2C(CO)=CC[C@H]12 [Geniposidic acid]
2.09%: UACC62P
< 0%: all other assays above

CC[C@H](Nc1ncnc2[nH]cnc12)c1nc2cccc(F)c2c(=O)n1-c1ccccc1 [CAL-101 (Idelalisib, GS-1101)]
5.5%: UACC62P
< 0%: all other assays above

COc1ccc(C2CC(c3ccccc3)=NN2c2ccc(S(N)(=O)=O)cc2)cc1 (stereo unspecified)
< 0%: all assays above

Cc1cccc(N(C)C(=S)Oc2ccc3ccccc3c2)c1 [Tolnaftate]
< 0%: all assays above

CCCCc1ncc(/C=C(\Cc2cccs2)C(=O)O)n1Cc1ccc(C(=O)O)cc1 [Eprosartan mesylate]
3.02%: M238R
< 0%: all other assays above

CCN(CC)CCCC(C)Nc1nc(C)cc(Nc2ccc3nc(C)cc(N)c3c2)n1 (stereo unspecified)
10.9%: M229R
< 0%: all other assays above

CCO[C@@H]1OC(=O)C[C@@H]1NC(=O)[C@@H]1CCCN1C(=O)[C@@H](NC(=O)c1ccc(N)c(Cl)c1)C(C)(C)C
< 0%: all assays above

Cc1ccccc1C(C(=O)NC1CCCC1)N(C(=O)Cn1cnc2ccccc21)c1cccc(F)c1 (stereo unspecified)
< 0%: all assays above

O=C(O)c1nc(=O)[nH]c(=O)[nH]1 [Oteracil potassium]
< 0%: all assays above

C=C1C(=O)O[C@@H]2/C=C(\C)CC/C=C(\C)CC[C@@H]12 [Costunolide]
5.3%: M249R
< 0%: all other assays above

Cc1[nH]c(/C=C2\C(=O)Nc3ccc(S(=O)(=O)Cc4c(Cl)cccc4Cl)cc32)c(C)c1C(=O)N1CCC[C@@H]1CN1CCCC1
< 0%: all assays above

C=C[C@H]1CN2CC[C@H]1C[C@@H]2[C@@H](O)c1ccnc2ccc(OC)cc12 [Quinidine]
12.6%: UACC62R
< 0%: all other assays above

NC(N)=Nc1nc(CSCC/C(N)=N/S(N)(=O)=O)cs1 [Famotidine]
< 0%: all assays above

CN(C)[C@@H]1C(O)=C(C(N)=O)C(=O)[C@@]2(O)C(O)=C3C(=O)c4c(O)cccc4[C@@](C)(O)[C@H]3[C@H](O)[C@@H]12 [Oxytetracycline]
< 0%: all assays above

COc1cc(/C=C/C(=O)CC(=O)/C=C/c2ccc(O)c(OC)c2)ccc1O [Curcumin]
6.99%: M229R
< 0%: all other assays above

3 entries drawn at random from those above, as already listed:
CCOC(=O)[C@@H](C)Oc1cccc2c(=O)n(CC(=O)Nc3ccc4c(c3)OCCO4)ccc12
< 0%: all assays above

O=C(O)C1=CO[C@@H](O[C@@H]2O[C@H](CO)[C@@H](O)[C@H](O)[C@H]2O)[C@@H]2C(CO)=CC[C@H]12 [Geniposidic acid]
2.09%: UACC62P
< 0%: all other assays above

CCO[C@@H]1OC(=O)C[C@@H]1NC(=O)[C@@H]1CCCN1C(=O)[C@@H](NC(=O)c1ccc(N)c(Cl)c1)C(C)(C)C
< 0%: all assays above

Following part

CC(C)(CO)[C@@H](O)C(=O)NCCC(=O)O [Pantothenic acid]
< 0%: all assays above

O=c1ncn2nc(Sc3ccc(F)cc3F)ccc2c1-c1c(Cl)cccc1Cl
< 0%: all assays above

CC(C)N(CC[C@H](c1ccccc1)c1cc(CO)ccc1O)C(C)C
< 0%: all assays above

CN1C2=CC(=O)/C(=N\NC(N)=O)C=C2CC1S(=O)(=O)O (stereo unspecified) [Carbazochrome sodium sulfonate]
< 0%: all assays above

COc1cc(O)c2c(c1)[C@H]1O[C@@H]1C[C@H](O)[C@H](O)C(=O)/C=C\C[C@H](C)OC2=O [Hypothemycin]
5.02%: UACC62R
41.2%: UACC62P
30.8%: M249P
< 0%: M238R | M249R
34.7%: M238P
15.9%: M229P
2.65%: M229R

CC(=O)NC(C)c1ccc(Oc2ccc(OC(C)C)cc2)cc1 (stereo unspecified)
0.22%: M249R
< 0%: all other assays above

O=S(=O)(O)CCS [Mesna]
< 0%: all assays above

CN1CCN2c3ncccc3Cc3ccccc3C2C1 (stereo unspecified) [Mirtazapine]
< 0%: all assays above

NS(=O)(=O)c1cccc2c1C(=O)c1cccc(O)c1C2=O
47.4%: M229R
96.8%: M238R
61.1%: M249R
90.9%: M238P
71.3%: M229P
25.8%: M249P
98.2%: UACC62R
89%: UACC62P

Nc1ccc(S(=O)(=O)Nc2ccnn2-c2ccccc2)cc1 [Sulfaphenazole]
< 0%: all assays above

Nc1ncnc2c1c(-c1cnc3[nH]ccc3c1)nn2C1CCCC1
22.2%: M249R
26.5%: M238P
14.6%: UACC62P
< 0%: M229P
37.2%: M229R
5.01%: M249P
45.3%: M238R
21.8%: UACC62R

O=C(NC(Cc1cc(=O)[nH]c2ccccc12)C(=O)O)c1ccc(Cl)cc1 (stereo unspecified) [Rebamipide]
2.14%: UACC62P
< 0%: all other assays above

N[C@@H](CSC(c1ccccc1)(c1ccccc1)c1ccccc1)C(=O)O [S-Trityl-L-cysteine]
< 0%: all assays above

O=S(=O)(O)CCSSCCS(=O)(=O)O [Mesna disulfide]
3.19%: UACC62P
4.73%: M249R
< 0%: all other assays above

COc1cc(Nc2ncc(F)c(Nc3ccc4c(n3)NC(=O)C(C)(C)O4)n2)cc(OC)c1OC
0.07%: M249R
1.34%: UACC62P
37%: UACC62R
< 0%: all other assays above

O=C1NC(=O)/C(=C/c2ccc3c(c2)OC(F)(F)O3)S1
3.57%: M249P
< 0%: all other assays above

COC(=O)Nc1nc2cc(C(=O)c3ccc(F)cc3)ccc2[nH]1 [Flubendazole]
22.9%: M238R
11.2%: UACC62R
37.6%: M229R
< 0%: M249P
21.6%: M238P
5.17%: M229P
9.51%: M249R
10.6%: UACC62P

CCOC(=O)[C@H](CCc1ccccc1)N[C@@H](C)C(=O)N1CCC[C@H]1C(=O)O [Enalapril maleate]
< 0%: all assays above
